# Data taken from PubChem BioAssay AID504582 (Broad Institute, 2011).
# About 2,300 (0.68%) of roughly 340,000 compounds were called active. The shares of active, inactive and inconclusive entries below differ from those in the screen. Rule as the data show it: active = growth rescue above about 28% (passing the limit was not always enough); inconclusive = no clear call, values can overlap the other calls.
# Experiment: rescue of yeast from PfHsp40 toxicity, primary screen, S. cerevisiae, ATP luminescence (AID 504582);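 also: yeast W303a lacking pdr1 and pdr3 grown in galactose medium; growth measured after three days at 30 °C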
# Details: S. cerevisiae expressing PfHsp40, growth rescue, at 12.5 µM, active compounds read high
row,SMILES,growth rescue
1,CCC(=O)Nc1cc(NC(=O)CSc2ncc(-c3ccc(F)cc3)n2Cc2ccco2)ccc1C,inconclusive: 28.8%
2,CCC(OC(=O)c1cc2sccc2n1C)C(=O)NCc1ccco1 (stereo not drawn),inconclusive: 26.5%
3,FC(F)(F)C1CCCN(c2nsc3ccccc23)C1 (stereo not drawn),inconclusive: 173%
4,CC(C)(C)/C(O)=C/c1nc2cc(Cl)ccc2oc1=O,inconclusive: 129%
5,COc1n[nH]c(C(=O)Nc2cc(Cl)ccc2Cl)c1[N+](=O)[O-],inactive: 0.0985%
6,Cc1[nH][nH]c(=O)c1C(c1ccc(F)cc1)c1c(C)[nH][nH]c1=O,inactive: -0.299%
7,COC(=O)c1sc(N)c(C(=O)OC)c1CSc1nnnn1C,inactive: -0.0035%
8,CCc1cc(SC#N)cc(C)c1NC(=O)CCl,inconclusive: 30.5%
9,O=C(NCc1ccccc1)c1cc2ccc(O)cc2oc1=O,inconclusive: 36.4%
10,CCCn1c(=O)c(C(=O)NNC(=O)c2ccccc2[N+](=O)[O-])c(O)c2ccccc21,inconclusive: 109%
11,CCOC(=O)C1=C(COC(=O)COc2ccc(OCC)cc2)NC(=O)NC1C (stereo not drawn),inactive: -0.436%
12,CN(C)c1ccc(N=c2sc3ccccc3n2C)cc1,inconclusive: 65.1%
13,Cc1ccc(S(=O)(=O)N(C)c2c(C)ccc(S(=O)(=O)N3CCN(C=O)CC3)c2C)cc1,inactive: 0.827%
14,Cn1c(CNc2ccccc2O)nc2ccccc21,inconclusive: 94.7%
15,COc1ccc(C(=O)/C=C/c2ccc(O)cc2)c(O)c1CC=C(C)C,inconclusive: 34.5%
16,COc1ccc(-c2cnc(SCC(=O)Nc3ccc4c(c3)OCO4)n2Cc2ccco2)cc1,inconclusive: 26%
17,COc1ccc(-c2nc3ccccn3c2NC2CCCCC2)cc1SC1CCCCC1,inconclusive: 33.6%
18,O=C(COC(=O)/C=C/c1ccccc1Cl)NCc1ccccc1,inconclusive: 42.3%
19,CCOc1ccc2c(c1)C(NC(C)=O)C(=O)N2CCN1CCOCC1 (stereo not drawn),inactive: -3.93%
20,CCOC(=O)c1ccc(NC(=S)N(Cc2cccnc2)Cc2ccco2)cc1,active: 389%
21,O=C1COc2ccccc2N1Cc1ccccc1Cl,active: 49.8%
22,O=C(CSc1n[nH]c(-c2ccncc2)n1)NCCc1ccccc1,inactive: -0.567%
23,CN=C1SC(CC(=O)Nc2ccc(N3CCOCC3)cc2)C(=O)N1C (stereo not drawn),inactive: -0.909%
24,COc1cc(C=NO)nc(-c2ccccn2)c1,inconclusive: 26.1%

row,SMILES,growth rescue
1,COc1ccc(C(=O)NNC(=O)C(NC(=O)c2cc(OC)cc(OC)c2)C(C)C)cc1 (stereo not drawn),inconclusive: 28.8%
2,Cc1ccc(O)c(C(=O)CC(=O)c2cccc(F)c2)c1,inconclusive: 25.7%
3,COc1cnc(-c2ccccn2)nc1Sc1ccc(F)cc1,active: 37.4%
4,C/C(=N\NC(=O)c1cc(-c2cccnc2)nc2ccccc12)c1ccc(O)cc1O,active: 77.7%
5,Oc1c(CN2CCCC2)cc(COCc2ccccc2)c2cccnc12,active: 281%
6,O=C(/C=C/c1ccc(Cl)cc1)c1ccc([N+](=O)[O-])o1,inconclusive: 76.5%
7,CC1CCN(Cc2c(C(=O)N/N=C/c3cc(Br)ccc3O)nnn2-c2nonc2N)CC1,inconclusive: 29.2%
8,CN(C)c1ccc(C(=S)NCc2ccco2)cc1,inconclusive: 39.1%
9,Cc1ccc(C(=O)N2CCN(S(=O)(=O)N3CCCCCC3)CC2)cc1,inconclusive: 26.1%
10,COc1ccc(/C=N/n2c(C)nc3ccccc3c2=O)cc1OC,inconclusive: 54.7%
11,COc1ccccc1CNn1c(-c2cccc(C)c2)nc2ccccc2c1=O,active: 42.2%
12,Cc1ccccc1CN1CCN(CC(=O)NCc2ccccc2)C1=O,inactive: 2.73%
13,c1ccc(Nc2cccc(Nc3ccccc3)n2)cc1,active: 54.3%
14,COc1ccc(-c2nnc(SCC(=O)Oc3ccc(C)cc3)o2)cc1,inconclusive: 27.3%
15,O=C(NCCN1CCN(c2cccc(Cl)c2)CC1)c1ccc(CSc2nc3ccncc3[nH]2)cc1,inconclusive: 32.4%
16,Cc1cc(C)n(-c2c(F)c(F)c(COC(=O)c3ccccc3)c(F)c2F)n1,inconclusive: 37%
17,O=c1c2ccccc2oc2cc(Br)ccc12,inactive: -0.445%
18,C/C(Cl)=C\Cn1c(O)c(N=NC(N)=S)c2ccccc21,inconclusive: 32.6%
19,COc1ccc(CCNC(=O)c2ccc(Cl)cc2)cc1,inactive: 2.12%
20,C(=N\NC1=Nc2cccc3cccc1c23)/c1ccccn1,active: 327%
21,CNC(=S)N/N=C/c1cc(Br)cc(Br)c1O,inconclusive: 27.2%
22,COc1ccc(NC2CCN(C3CC(=O)N(c4ccc(F)c(Cl)c4)C3=O)CC2)cc1 (stereo not drawn),inconclusive: 72.7%
23,Cc1ccc(S(=O)(=O)Nc2ccc(O)c3ncccc23)cc1,active: 188%
24,CC(C)n1c(NCCO)nc2ccccc21,inconclusive: 43.3%

row,SMILES,growth rescue
1,O=C(/C=C/c1c[nH]c2ccccc12)c1ccccc1,inconclusive: 38.1%
2,CN(C)CCCOc1ccc(Cl)cc1Br,inactive: -0.544%
3,CCOC(=O)/C=C(\C)Sc1cc(O)c2ccccc2c1O,inconclusive: 27.7%
4,CCOc1ccc(-c2nnc3ccc(SC)nn23)cc1,inconclusive: 44.8%
5,COc1ccc(Br)c(C(=O)OCC(=O)N2CCC(Cc3ccccc3)CC2)c1,active: 27.4%
6,N#C/C(=N\Nc1cccc(C(F)(F)F)c1)C(=O)c1ccsc1,inconclusive: 38.5%
7,COc1ccc(N2CCN(Cc3nc4ccccc4c(=O)[nH]3)CC2)cc1,inconclusive: 38.4%
8,CC1CC(=O)N(CC(=O)Nc2ccc3c(c2)OCO3)c2ccccc2S1 (stereo not drawn),inconclusive: 35.2%
9,COc1ccccc1-c1nc2cc(Cl)ccc2c(=O)n1O,inconclusive: 30.9%
10,C[C@@H]1NC(=O)N[C@@H]1CCCCCC(=O)O,inactive: -1.76%
11,O=C(O)c1cc(NC(=O)c2ccc([N+](=O)[O-])cc2)cc(NC(=O)c2ccc([N+](=O)[O-])cc2)c1,inactive: -0.911%
12,CSc1ccccc1NC(=O)c1cc(CC(C)C)on1,inactive: 0.512%
13,Cc1ccc(CNC(=O)CSc2ccc(-c3ccccn3)nn2)cc1,active: 219%
14,CCCCCNC(=O)C(=O)C1C(=O)Nc2ccccc21 (stereo not drawn),inconclusive: 29.1%
15,CCOCCCNC(=O)c1cn(CC(C)C)c(=O)c2c1c1ccccc1n2C,inconclusive: 53.6%
16,O=C(Nc1ccccc1Oc1cccnc1)C1CCCN(Cc2ccccc2O)C1 (stereo not drawn),inactive: 1.14%
17,CCN(CC)S(=O)(=O)c1cc(NC(=O)C2CCN(c3ncnc4sc(C)c(C)c34)CC2)ccc1Cl,inconclusive: 81.2%
18,CCCCN(Cc1nc2ccccc2c(=O)[nH]1)C(=O)CN1C(=O)NC2(CCCCC2)C1=O,inconclusive: 32.7%
19,CC(C)=CCc1c(O)ccc(C2COc3c(CC=C(C)C)c(O)cc(O)c3C2=O)c1O (stereo not drawn),inconclusive: 85.2%
20,CCN(CC)C(=O)CSc1nc2c(sc(=S)n2-c2ccccc2)c(=O)n1-c1ccc(OC)c(OC)c1,inconclusive: 27.1%
21,CCN(CC)c1ccc(C=O)c(OC)c1,inconclusive: 29.9%
22,COc1ccc2cc(C)c3nnc(SCC(=O)Nc4nc(-c5ccc(F)cc5)cs4)n3c2c1,inconclusive: 30.9%
23,NS(=O)(=O)c1ccc(N2N=C(c3ccc(Br)cc3)CC2c2ccc(F)cc2)cc1 (stereo not drawn),inactive: -1.49%
24,CC1CCN(C(=O)CCc2ccc(Oc3cc([N+](=O)[O-])cc([N+](=O)[O-])c3)cc2)CC1,inconclusive: 59.4%

row,SMILES,growth rescue
1,Cc1cc(C)c(OCC(=O)N2CCN(c3ncc(C(F)(F)F)cc3Cl)CC2)c(C)c1,inconclusive: 29.2%
2,CN1C(=O)NC(c2ccc(O)cc2)C2=C1CN(c1ccc(O)cc1)C2=O (stereo not drawn),inactive: 0.267%
3,CCOc1ccc(S(=O)(=O)n2cc(F)c(=O)[nH]c2=O)cc1,active: 144%
4,O=c1ccc2cc(S(=O)(=O)NCCCc3ccccc3)ccc2[nH]1,active: 30.5%
5,O=C(O)CCC(=O)Nc1cccc2cccnc12,inconclusive: 57.6%
6,Nc1nc(Nc2ccccc2)sc1C(=O)c1ccccc1,inconclusive: 26.9%
7,N/C(=N\OC(=O)c1ccc2ccccc2c1)c1ccccc1Cl,active: 87.3%
8,O=C(NC1=NCCS1)c1csc2ccccc12,active: 49.5%
9,COc1ccc(C(=O)N/C(=C\c2cn(C)c3ccccc23)C(=O)NCCCn2ccnc2)cc1OC,inconclusive: 35.8%
10,Nc1ccc(Nc2ccccc2)c(S(=O)(=O)O)c1,active: 41.4%
11,O=C(/C=C/c1ccc(Cl)cc1)NC(=S)Nc1ccccc1C(=O)O,inconclusive: 31.2%
12,O=[N+]([O-])c1ccc(O)c2ncccc12,inconclusive: 28.6%
13,Cc1cc(C)cc(NC(=O)CSc2ccc(-c3ccccn3)nn2)c1,inconclusive: 162%
14,O=C(Nc1c(C(=O)Nc2ccccc2)cnn1-c1ccccc1)c1ccco1,inactive: -0.584%
15,COc1ccc(/C=N/Nc2nccnc2Cl)cc1,inconclusive: 47.8%
16,COC(=O)C1=NN(C(=O)c2cccc(Br)c2)C(O)(c2ccc(Cl)cc2)C1 (stereo not drawn),active: 494%
17,CCC(C)c1ccc(NC(=S)NCCn2cc(Br)cn2)cc1 (stereo not drawn),inconclusive: 55.8%
18,Cc1ccnc(NC(=O)c2ccccc2[N+](=O)[O-])c1,inconclusive: 38.1%
19,Cc1cc(N/N=C/c2ccc([N+](=O)[O-])o2)nc2ccccc12,inconclusive: 33.2%
20,Cc1ccccc1OCC(=O)N/N=C/c1cn(C)c2ccccc12,inconclusive: 69.6%
21,CCOC(=O)C1CCN(C(c2cc3ccc(C)c(C)c3[nH]c2=O)c2nnnn2C2CCCCC2)CC1 (stereo not drawn),inconclusive: 25.3%

# Arranged by SMILES length (high to low): 5 of the compounds above
row,SMILES,growth rescue
1,Cc1cc(C)c(OCC(=O)N2CCN(c3ncc(C(F)(F)F)cc3Cl)CC2)c(C)c1,inconclusive: 29.2%
19,Cc1cc(N/N=C/c2ccc([N+](=O)[O-])o2)nc2ccccc12,inconclusive: 33.2%
3,CCOc1ccc(S(=O)(=O)n2cc(F)c(=O)[nH]c2=O)cc1,active: 144%
6,Nc1nc(Nc2ccccc2)sc1C(=O)c1ccccc1,inconclusive: 26.9%
12,O=[N+]([O-])c1ccc(O)c2ncccc12,inconclusive: 28.6%
